According to patent US10059927B2, “Compositions and methods for controlling microbial growth” (priority 2015, dated 2018):
For at least one compound, name, drawing or mass did not settle the structure.

Legend:
Type in all cases: cell-based, S. cerevisiae
[1] = test system: SPAZ4 SG strains (FAS2, RPB11, SEC4); test: Growth of SPAZ4 safeguard strains (ZEV system) with or without estradiol
[2] = test system: GEV regulated safeguard strains; test: β-Estradiol induction of GEV system (growth on glucose medium with or without estradiol)
[3] = test system: safeguard strains carrying Cre-EBD plasmid; test: β-Estradiol induction of Cre expression (killing of safeguard strains)
[4] = test system: Yeast Tet-Promoters Hughes Collection (yTHC) Tet-OFF strains; test: Fitness screen of Yeast Tet-Promoters Hughes Collection strains on Doxycycline; conditions: 47 selected yTHC Tet-OFF strains; YPD+10 μg/mL Doxycycline

In the case of C[C@]12CC[C@@H]3c4ccc(O)cc4CC[C@H]3[C@@H]1CC[C@@H]2O [estradiol, β-estradiol], the “growth in serial dilutions on media with estradiol” value ([1]; SPAZ4 FAS2, RPB11 and SEC4 strains, 1 μM estradiol, compared to shuffle strain) is reported as “indistinguishable from that of the shuffle strain”, the “growth rate in YPD medium” value ([1]; all three SPAZ4 SG strains, 30 nM estradiol) is reported as “growth similar to the BY4741 wild-type strain” and the “growth of RPC11 safeguard strains with SPAL promoters transformed with pGEV” value ([2]; SPAL2, SPAL5, SPAL6 promoters, glucose medium with or without estradiol) is reported as “grow on glucose only in the presence of estradiol”. For the same molecule, the “growth on estradiol supplemented glucose medium” value ([2]; histone strain PCy599 with GEV plasmid, 30 nM estradiol, cannot survive on glucose medium without estradiol) was “grows well”, the “maintenance of viability of safeguard strain” value ([2]; strain NAy236 (PCy599 with GEV plasmid), 30 nM) was “able to maintain viability” and the “killing of safeguard strain upon Cre induction” value ([3]; PCy230 with pTDH3-Cre-EBD, Gal-estradiol plates) was “effectively killed the safeguard strain upon induction”. The “killing of safeguard strain upon Cre induction” value ([3]; PCy251 (PCy230 with pSCW11-Cre-EBD), Gal plates with 1 μM estradiol) was “killing effect was not as complete as expected”.

With C[C@H]1c2cccc(O)c2C(=O)C2=C(O)[C@]3(O)C(=O)C(C(N)=O)=C(O)[C@@H](N(C)C)[C@@H]3[C@@H](O)[C@@H]21 [Doxycycline] the “fitness in the presence of Doxycycline” value [4] was “low fitness”.
